Results: publication PMC8786740
Results are given in words; binding and its absence hold for the method and conditions named. In cells and extracts the contact can be indirect. Some results given as binding are weak or reduced against the parent protein; the word gives no strength. Tags and fused reporters may be left off the sequences shown.

T1: PXC3 with a C-terminal GFP fusion (35Spro:PXC3-GFP) (Arabidopsis thaliana) (UniProt O22938)
T1 sequence: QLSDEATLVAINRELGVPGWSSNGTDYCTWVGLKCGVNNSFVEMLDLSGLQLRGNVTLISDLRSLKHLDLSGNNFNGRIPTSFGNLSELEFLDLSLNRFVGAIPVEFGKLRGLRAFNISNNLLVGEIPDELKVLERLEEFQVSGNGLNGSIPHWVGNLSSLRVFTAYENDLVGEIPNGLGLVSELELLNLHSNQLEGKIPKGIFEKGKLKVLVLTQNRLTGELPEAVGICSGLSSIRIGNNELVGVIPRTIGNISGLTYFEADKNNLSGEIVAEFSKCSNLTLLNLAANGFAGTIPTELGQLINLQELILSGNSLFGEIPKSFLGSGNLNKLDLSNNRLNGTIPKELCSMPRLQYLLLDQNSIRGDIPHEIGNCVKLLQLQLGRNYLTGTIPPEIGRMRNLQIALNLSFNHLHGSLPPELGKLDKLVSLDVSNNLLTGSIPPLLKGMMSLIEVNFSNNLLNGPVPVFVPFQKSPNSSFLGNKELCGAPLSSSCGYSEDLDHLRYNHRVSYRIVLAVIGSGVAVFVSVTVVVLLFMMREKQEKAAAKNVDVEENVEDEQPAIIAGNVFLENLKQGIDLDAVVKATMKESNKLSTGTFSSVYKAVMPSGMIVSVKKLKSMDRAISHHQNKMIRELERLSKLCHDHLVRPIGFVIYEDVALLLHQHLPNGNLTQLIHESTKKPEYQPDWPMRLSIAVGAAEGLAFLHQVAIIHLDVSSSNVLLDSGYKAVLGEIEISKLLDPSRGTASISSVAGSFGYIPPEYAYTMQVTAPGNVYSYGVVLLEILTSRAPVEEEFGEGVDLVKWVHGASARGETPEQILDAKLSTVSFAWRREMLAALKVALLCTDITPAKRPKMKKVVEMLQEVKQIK

T2: BAK1 fused to the C-terminal half of GFP (35Spro:BAK1-cGFP) (Arabidopsis thaliana) (UniProt Q94F62)
T2 sequence: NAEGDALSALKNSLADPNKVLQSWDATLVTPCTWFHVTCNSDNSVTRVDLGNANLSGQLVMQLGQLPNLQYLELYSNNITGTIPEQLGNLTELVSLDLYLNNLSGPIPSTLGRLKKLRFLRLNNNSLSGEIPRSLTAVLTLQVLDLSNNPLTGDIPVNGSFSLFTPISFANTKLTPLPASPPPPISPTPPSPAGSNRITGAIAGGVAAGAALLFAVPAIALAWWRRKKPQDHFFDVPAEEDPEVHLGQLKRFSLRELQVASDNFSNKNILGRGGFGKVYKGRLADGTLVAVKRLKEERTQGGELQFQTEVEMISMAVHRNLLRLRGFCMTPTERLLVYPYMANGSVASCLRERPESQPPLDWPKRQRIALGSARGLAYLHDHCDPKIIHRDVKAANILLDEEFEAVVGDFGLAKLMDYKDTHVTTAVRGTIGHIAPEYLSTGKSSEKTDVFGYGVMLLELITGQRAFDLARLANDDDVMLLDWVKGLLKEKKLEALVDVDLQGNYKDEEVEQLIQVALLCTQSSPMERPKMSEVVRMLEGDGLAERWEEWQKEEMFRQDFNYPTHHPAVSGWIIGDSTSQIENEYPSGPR


What was measured:
[1] = target: T1, PXC3 with a C-terminal GFP fusion (35Spro:PXC3-GFP) (Arabidopsis thaliana); experiment: co-IP; PXC3-GFP and BAK1-HA co-infiltrated in tobacco leaves; leaf extract (1% Triton X-100, 150 mM NaCl), GFP-trap magnetic agarose beads 1 h at 4 C; western blot with anti-HA and anti-GFP
[2] = target: T2, BAK1 fused to the C-terminal half of GFP (35Spro:BAK1-cGFP) (Arabidopsis thaliana); experiment: split reporter; BIFC: BAK1-cGFP with LRR-RLK-nGFP, transient expression in N. benthamiana leaves, confocal imaging 3 days after infiltration; mean GFP signal compared with the PEPR1-nGFP/BAK1-cGFP pair taken as background

binding [1] | binding [2] | Binder
binds | – | BAK1 fused to a 3x HA tag (35Spro:BAK1-HA) (receptor, UniProt Q94F62 26-615) NAEGDALSALKNSLADPNKVLQSWDATLVTPCTWFHVTCNSDNSVTRVDLGNANLSGQLVMQLGQLPNLQYLELYSNNITGTIPEQLGNLTELVSLDLYLNNLSGPIPSTLGRLKKLRFLRLNNNSLSGEIPRSLTAVLTLQVLDLSNNPLTGDIPVNGSFSLFTPISFANTKLTPLPASPPPPISPTPPSPAGSNRITGAIAGGVAAGAALLFAVPAIALAWWRRKKPQDHFFDVPAEEDPEVHLGQLKRFSLRELQVASDNFSNKNILGRGGFGKVYKGRLADGTLVAVKRLKEERTQGGELQFQTEVEMISMAVHRNLLRLRGFCMTPTERLLVYPYMANGSVASCLRERPESQPPLDWPKRQRIALGSARGLAYLHDHCDPKIIHRDVKAANILLDEEFEAVVGDFGLAKLMDYKDTHVTTAVRGTIGHIAPEYLSTGKSSEKTDVFGYGVMLLELITGQRAFDLARLANDDDVMLLDWVKGLLKEKKLEALVDVDLQGNYKDEEVEQLIQVALLCTQSSPMERPKMSEVVRMLEGDGLAERWEEWQKEEMFRQDFNYPTHHPAVSGWIIGDSTSQIENEYPSGPR
– | binds | BIR2 fused to the N-terminal half of GFP (35Spro:BIR2-nGFP) (receptor, UniProt Q9LSI9 29-605) ADEDDIRCLRGLKASLTDPQNALKSWNFDNTTLGFLCNFVGVSCWNNQENRVINLELRDMGLSGKIPDSLQYCASLQKLDLSSNRLSGNIPTELCNWLPFLVSLDLSNNELNGEIPPDLAKCSFVNSLVLSDNRLSGQIPVQFSALGRLGRFSVANNDLSGRIPVFFSSPSYSSDDFSGNKGLCGRPLSSSCGGLSKKNLGIIIAAGVFGAAASMLLAFGIWWYYHLKWTRRRRSGLTEVGVSGLAQRLRSHKLTQVSLFQKPLVKVKLGDLMAATNNFNSENIIVSTRTGTTYKALLPDGSALAVKHLSTCKLGEREFRYEMNQLWELRHSNLAPLLGFCVVEEEKFLVYKYMSNGTLHSLLDSNRGELDWSTRFRIGLGAARGLAWLHHGCRPPILHQNICSSVILIDEDFDARIIDSGLARLMVPSDNNESSFMTGDLGEFGYVAPEYSTTMLASLKGDVYGLGVVLLELATGLKAVGGEGFKGSLVDWVKQLESSGRIAETFDENIRGKGHDEEISKFVEIALNCVSSRPKERWSMFQAYQSLKAIAEKQGYSFSEQDDDFPLIFDTQENEKV
– | binds | PXC3 fused to the N-terminal half of GFP (35Spro:PXC3-nGFP) (receptor, UniProt O22938 24-890) QLSDEATLVAINRELGVPGWSSNGTDYCTWVGLKCGVNNSFVEMLDLSGLQLRGNVTLISDLRSLKHLDLSGNNFNGRIPTSFGNLSELEFLDLSLNRFVGAIPVEFGKLRGLRAFNISNNLLVGEIPDELKVLERLEEFQVSGNGLNGSIPHWVGNLSSLRVFTAYENDLVGEIPNGLGLVSELELLNLHSNQLEGKIPKGIFEKGKLKVLVLTQNRLTGELPEAVGICSGLSSIRIGNNELVGVIPRTIGNISGLTYFEADKNNLSGEIVAEFSKCSNLTLLNLAANGFAGTIPTELGQLINLQELILSGNSLFGEIPKSFLGSGNLNKLDLSNNRLNGTIPKELCSMPRLQYLLLDQNSIRGDIPHEIGNCVKLLQLQLGRNYLTGTIPPEIGRMRNLQIALNLSFNHLHGSLPPELGKLDKLVSLDVSNNLLTGSIPPLLKGMMSLIEVNFSNNLLNGPVPVFVPFQKSPNSSFLGNKELCGAPLSSSCGYSEDLDHLRYNHRVSYRIVLAVIGSGVAVFVSVTVVVLLFMMREKQEKAAAKNVDVEENVEDEQPAIIAGNVFLENLKQGIDLDAVVKATMKESNKLSTGTFSSVYKAVMPSGMIVSVKKLKSMDRAISHHQNKMIRELERLSKLCHDHLVRPIGFVIYEDVALLLHQHLPNGNLTQLIHESTKKPEYQPDWPMRLSIAVGAAEGLAFLHQVAIIHLDVSSSNVLLDSGYKAVLGEIEISKLLDPSRGTASISSVAGSFGYIPPEYAYTMQVTAPGNVYSYGVVLLEILTSRAPVEEEFGEGVDLVKWVHGASARGETPEQILDAKLSTVSFAWRREMLAALKVALLCTDITPAKRPKMKKVVEMLQEVKQIK
